Literature values as cited in patent US7029902B2, “Isolated monkey cathepsin S proteins, nucleic acid molecules encoding monkey cathepsin S proteins, and uses thereof” (Applera Corporation, priority 2004, dated 2006).
For at least one compound, name, drawing or mass did not settle the structure.

Columns and labels:
human colon tumor = conditions: given intraperitoneally, orthotopic model in nude mice (Wang et al. 1994)
[1] = test system: human ovarian carcinoma xenografts; conditions: mice bearing human ovarian carcinoma xenografts (Davies et al. 1993)

SMILES: CNC(=O)[C@H](Cc1ccccc1)NC(=O)[C@H](CC(C)C)[C@H](CSc1cccs1)C(=O)NO [batimastat]
- human colon tumor growth and spread (human colon tumor): inhibits human colon tumor growth and spread
- survival [1]: prolongs the survival
